# Experimental data from publication doi:10.1101/2020.12.21.423744.
# Protein sequences, listed by entry. Tags and fused reporters are not part of them.
# UniProt Q86WV6, whole entry: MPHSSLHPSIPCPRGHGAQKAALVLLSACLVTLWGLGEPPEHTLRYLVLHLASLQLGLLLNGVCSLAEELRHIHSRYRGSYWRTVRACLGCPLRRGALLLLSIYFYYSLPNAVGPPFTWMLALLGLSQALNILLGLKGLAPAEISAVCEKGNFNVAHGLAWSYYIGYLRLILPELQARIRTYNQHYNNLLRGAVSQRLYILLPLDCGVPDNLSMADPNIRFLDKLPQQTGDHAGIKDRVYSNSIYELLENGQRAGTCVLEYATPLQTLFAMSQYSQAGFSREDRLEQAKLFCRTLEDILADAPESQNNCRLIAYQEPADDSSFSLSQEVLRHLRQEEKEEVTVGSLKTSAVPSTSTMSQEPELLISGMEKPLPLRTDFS
# No constants are given. Whether binding was seen depends on the method and setting. In cells and extracts the contact can be indirect. A yes stands for co-enrichment or nearness to the bait. Other partners may have been found.
# Biological target: STING-GFP (STimulator of INterferon Genes fused to GFP) (UniProt Q86WV6)
# Assay: affinity purification with mass spectrometry
row,Substance,binding
1,Brd2 (from UniProt P25440 1-801),binds
2,DDX5 (from UniProt P17844 1-614),binds
3,DDX41 (from UniProt Q9UJV9 1-622),binds
4,Lamin A (from UniProt P02545 1-646),binds
5,MEN1 (from UniProt O00255 1-610),binds
6,MLL1 (from UniProt Q03164 1-3969),binds
7,PARP1 (from UniProt P09874 1-1014),binds
8,Rbmx (from UniProt P38159 1-391),binds
9,SYNCRIP (from UniProt O60506 1-623),binds
